Source: patent publication US12060330B2, “Therapeutic indazoles” (priority 2017, dated 2024)
At least one compound was matched to its structure with a doubt left.

Tested on: DG167-resistant M. tuberculosis mutants
Assay type: cell-based

## COc1c(N2C[C@@H]3CCCN[C@@H]3C2)c(F)cc2c(=O)c(C(=O)O)cn(C3CC3)c12 [moxifloxacin]
  susceptibility of DG167-resistant mutants: remained susceptible

## CO[C@H]1/C=C/O[C@@]2(C)Oc3c(C)c(O)c4c(O)c(c(/C=N/N5CCN(C)CC5)c(O)c4c3C2=O)NC(=O)/C(C)=C\C=C\[C@H](C)[C@H](O)[C@@H](C)[C@@H](O)[C@@H](C)[C@H](OC(C)=O)[C@@H]1C [rifampicin]
  susceptibility of DG167-resistant mutants: remained susceptible
